In US20230218558A1, “NOVEL THERAPEUTIC USE OF PLEUROMUTILINS” (priority 2020, published 2023):
Like-named read-outs stand apart in the source and are kept apart here.

Tested on: HEp2 cells
Test: Cell viability of uninfected drug control wells, HEp2 cells, XTT
Conditions: read-out: TC50

Measured: CC50

Cc1ccc(CCCO)c(NCc2ccc3nc(NCCCN4CCOCC4)n(Cc4nc(C)ccc4O)c3c2)c1 [TMC353121]
> 1000 nM: Example 5, HEp2 cells, RSV ALONG experiment | Example 5, HEp2 cells, RSV B18537 experiment
> 100 nM: Example 3, uninfected HEp2 cells, 6 days | Example 4, MOI 0.0004 | Example 4, MOI 0.0008 | Example 4, MOI 0.001 | Example 4, MOI 0.003
